Taken from: PubChem BioAssay AID652243 (Drosophila RNAi Screening Center, 2013)

Assay: 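Knock-downs that decrease or increase androgen receptor reporter signal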 (primary screen)
System: Drosophila S2R+ cells
Reagent: long dsRNA against Drosophila genes
Time to read-out: 72 h (48 h, then 24 h hormone)
Challenge: synthetic androgen R1881 at 10 nM for 24 h
Measured: 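Per-well raw luminescence of the androgen-driven firefly reporter and of the Renilla control, two replicates each, without normalisation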
Scale: firefly reporter light: higher = more light from androgen-responsive reporter; Renilla control light: higher = more constitutive control signal (cell number, transfection)
Call rule: 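Across duplicate plates, a knock-down whose log firefly/Renilla ratio shifted a set fold down or up from the GFP/LacZ control mean was a hit; the downward cut appears as both 1.5 and 3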
Calls: active = hit: reporter lowered or raised; inactive = no hit
The deposit covers about 24,000 reagents; shown is an unselected part of those with a known target gene and a result. Of all reagents, 246 (1%) got an active call. 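Plates not normalised; calls are printed but the firefly/Renilla ratio behind them is not deposited; fold cut for lowering reported inconsistently.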 Raw values are not corrected between plates. Entries without a mark were called inactive. The numbers tell different reagents against one gene apart. Reagent sequences are not shown. Not given: the amount of reagent.

| Target gene | dsRNA no. | firefly reporter light, replicate 1 | firefly reporter light, replicate 2 | Renilla control light, replicate 1 | Renilla control light, replicate 2 |
| --- | --- | --- | --- | --- | --- |
| VhaSFD | 1 | 5.04e5 | 9.15e5 | 1.23e6 | 1.58e6 |
| PGRP-SB1 | 1 | 2.11e5 | 1.27e5 | 1.64e6 | 1.42e6 |
| CG9568 | 1 | 2.68e5 | 1.92e5 | 2.81e6 | 2.10e6 |
| Ypel | 1 | 1.24e5 | 1.41e5 | 8.71e5 | 8.50e5 |
| Ypel | 2 | 3.18e5 | 3.75e5 | 7.84e5 | 9.72e5 |
| CG31207 | 1 | 5.97e5 | 8.46e5 | 4.96e5 | 4.65e5 |
| CG12691 | 1 | 2.24e5 | 2.41e5 | 3.47e6 | 2.85e6 |
| CG5080 | 1 | 5.26e5 | 6.23e5 | 1.23e6 | 1.01e6 |
| CG32259 | 1 | 1.06e5 | 1.37e5 | 3.95e5 | 3.98e5 |
| Xrcc2 | 1 | 6.70e5 | 5.27e5 | 3.37e6 | 2.81e6 |
| Xrcc2 | 2 | 3.87e5 | 4.96e5 | 2.61e5 | 2.61e5 |
| Spn28Db | 1 | 9.16e5 | 8.16e5 | 1.42e6 | 1.42e6 |
| CG6230 | 1 | 7.06e5 | 9.39e5 | 1.80e6 | 2.30e6 |
| Gr59d | 1 | 7.90e5 | 7.26e5 | 1.19e6 | 1.03e6 |
| CG31251 | 1 | 53056 | 1.01e5 | 6.47e5 | 8.36e5 |
| sxe2 | 1 | 78163 | 1.51e5 | 6.67e5 | 7.51e5 |
| Cht4 | 1 | 3.72e5 | 3.92e5 | 1.90e6 | 1.58e6 |
| HIPP1 | 1 | 42194 | 64821 | 2.75e5 | 3.71e5 |
| HIPP1 | 2 | 5.87e5 | 3.13e5 | 2.65e6 | 2.09e6 |
| Ppi1 | 1 | 41745 | 42740 | 4.82e5 | 2.94e5 |
| SMC2 | 1 | 1.29e6 | 8.77e5 | 2.00e6 | 1.37e6 |
| SMC2 | 2 | 5.25e5 | 2.82e5 | 1.42e6 | 1.22e6 |
| GATAe | 1 | 4.37e5 | 3.74e5 | 1.67e6 | 1.68e6 |
| NPF | 1 | 1.13e5 | 1.64e5 | 1.69e6 | 2.23e6 |

No new results follow: entries from further up.
| Target gene | dsRNA no. | firefly reporter light, replicate 1 | firefly reporter light, replicate 2 | Renilla control light, replicate 1 | Renilla control light, replicate 2 |
| --- | --- | --- | --- | --- | --- |
| Xrcc2 | 2 | 3.87e5 | 4.96e5 | 2.61e5 | 2.61e5 |
| Spn28Db | 1 | 9.16e5 | 8.16e5 | 1.42e6 | 1.42e6 |
| CG6230 | 1 | 7.06e5 | 9.39e5 | 1.80e6 | 2.30e6 |
